Results: the supplement of paper PMC11348887
Where a name gives a salt, the structure may show the parent alone. The list shows a part of the results. Small differences around the control level are noise.

What was measured:
Conditions in all cases: 5 µM; treatment: days 7-14 after plating, readout day 21
[1] = tested on: hPSC-derived cortical neurons (WA09); assay: nucleus area z-score vs screen plate; higher = larger nuclei (more mature)
[2] = tested on: hPSC-derived cortical neurons (WA09); assay: total neurite length per nucleus (MAP2) z-score; higher = more neurite growth
[3] = tested on: hPSC-derived cortical neurons (WA09); assay: nucleus roundness z-score vs screen plate; higher = rounder nuclei (more mature)
[4] = tested on: hPSC-derived cortical neurons (WA09); assay: KCl-induced FOS+/EGR-1+ double-positive nuclei fraction z-score (KCl minus unstimulated); higher = stronger activity-induced IEG response

Structure (SMILES)	nucleus area z-score [1]	total neurite length per nucleus (z-score) [2]	nucleus roundness z-score [3]	KCl-induced FOS+/EGR-1+ double-positive nuclei fraction z-score [4]
O=c1ccc2ccccc2o1 [Coumarin]	0.141	-0.266	-0.0178	0.0684
NC(=O)c1cccc2[nH]c(-c3ccc(C4CCCN4)cc3F)nc12 (stereo not drawn)	-0.541	-0.415	0.504	-0.567
NC[C@H]1O[C@H](O[C@H]2[C@H](O)[C@@H](O[C@H]3O[C@H](CO)[C@@H](O)[C@H](N)[C@H]3O)[C@H](N)C[C@@H]2N)[C@H](O)[C@@H](O)[C@@H]1O [Kanamycin sulfate]	-0.213	0.764	0.167	0.112
COc1cc(F)c(C(C)C)cc1-c1ccc(C(F)(F)F)cc1CN1C(=O)O[C@H](c2cc(C(F)(F)F)cc(C(F)(F)F)c2)[C@@H]1C [Anacetrapib (MK-0859)]	-0.854	-0.676	-0.737	-0.39
CO[C@H]1/C=C/O[C@@]2(C)Oc3c(C)c(O)c4c(O)c(c(/C=N/N5CCN(C6CCCC6)CC5)c(O)c4c3C2=O)NC(=O)/C(C)=C\C=C\[C@H](C)[C@H](O)[C@@H](C)[C@@H](O)[C@@H](C)[C@H](OC(C)=O)[C@@H]1C [Rifapentine]	1.17	-0.269	-0.00659	0.237
CCn1c(=O)c(-c2ccc(-c3cncs3)cc2Cl)cc2cnc(Nc3ccc(N4CCN(C)CC4)cc3)nc21	-1.37	-0.678	-1.07	-2.25
NC(=S)N/N=C/c1ncccc1N [Triapine]	-0.772	0.292	-0.171	-0.431
COc1cc(OC)c(NC(=O)Nc2cc(C)on2)cc1Cl	-0.417	0.46	0.509	1.94
CCn1c(-c2nonc2N)nc2c(C#CC(C)(C)O)ncc(OC[C@H]3CCCNC3)c21	-2.95	-1.48	-0.95	-0.708
CC1(C)OC(=O)NC1=O [5,5-Dimethyloxazolidine-2,4-dione]	0.452	-0.522	-1.21	1.01
c1ccc(C2CN3CCSC3=N2)cc1 (stereo not drawn) [Tetramisole HCl]	0.455	1.18	0.593	2.12
O=c1oc2cc(O)ccc2s1 [Tioxolone]	0.377	0.472	-0.262	-0.853
Cc1ccc(NC(=O)c2cccc(C(C)(C)C#N)c2)cc1Nc1ccc2ncn(C)c(=O)c2c1	0.378	1.04	0.599	0.68
CCCCN(Cc1ccc(C(=O)NO)cc1)C(=O)Nc1ccccc1 [Nexturastat A]	-0.359	-0.162	0.0962	0.337
O=C(N/N=C/c1ccc(O)c(O)c1)c1cc2ccccc2cc1O [Dynasore]	-0.382	-0.27	0.397	-0.0182
Cc1cc(NC(=O)c2cccc(NC(=O)/C=C/CN(C)C)c2)ccc1Nc1nccc(-c2cccnc2)n1	-1.59	-1.66	3.72	0.358
CC(C)NCC(O)c1ccc(NS(C)(=O)=O)cc1 (stereo not drawn) [Sotalol]	0.517	1.07	-0.228	0.213
C[C@H]1O[C@@H](Oc2c(-c3cc(O)c(O)c(O)c3)oc3cc(O)cc(O)c3c2=O)[C@@H](O)[C@@H](O)[C@@H]1O [Myricitrin]	0.519	0.864	0.463	0.365
Nc1nccc2c1ncn2C1C=C(CO)C(O)C1O (stereo not drawn) [3-Deazaneplanocin A (DZNeP)]	1.44	-0.517	-0.993	-0.667

4 compounds already listed, arranged by heavy-atom count, rising.
Structure (SMILES)	nucleus area z-score [1]	total neurite length per nucleus (z-score) [2]	nucleus roundness z-score [3]	KCl-induced FOS+/EGR-1+ double-positive nuclei fraction z-score [4]
O=c1oc2cc(O)ccc2s1 [Tioxolone]	0.377	0.472	-0.262	-0.853
NC(=S)N/N=C/c1ncccc1N [Triapine]	-0.772	0.292	-0.171	-0.431
O=C(N/N=C/c1ccc(O)c(O)c1)c1cc2ccccc2cc1O [Dynasore]	-0.382	-0.27	0.397	-0.0182
CCCCN(Cc1ccc(C(=O)NO)cc1)C(=O)Nc1ccccc1 [Nexturastat A]	-0.359	-0.162	0.0962	0.337

(list continues)

Structure (SMILES)	nucleus area z-score [1]	total neurite length per nucleus (z-score) [2]	nucleus roundness z-score [3]	KCl-induced FOS+/EGR-1+ double-positive nuclei fraction z-score [4]
CC(=O)[C@H]1CC[C@H]2[C@@H]3C=CC4=CC(=O)CC[C@@]4(C)[C@@H]3CC[C@]12C [Dydrogesterone]	0.555	-0.136	0.123	0.416
Cc1ccc(C(=O)C(C)CN2CCCCC2)cc1 (stereo not drawn) [Tolperisone HCl]	0.9	-0.912	-0.267	-0.572
COc1ccc(-c2nc(N3CCOCC3)c3sc(CN(C)c4ncc(C(=O)NO)cn4)cc3n2)cn1	-11.4	-4.8	-3.82	-0.542
CC(C)(C)C(=O)OCOP(=O)(COCCn1cnc2c(N)ncnc21)OCOC(=O)C(C)(C)C [Adefovir Dipivoxil]	-13.2	-3.81	-6.98	-1.01
CC1=CC(=O)NS(=O)(=O)O1 [Acesulfame Potassium]	0.709	0.379	0.257	1.13
O=C(CCCCCCC(=O)Nc1ccccc1)NO [Vorinostat (SAHA_ MK0683)]	-8.14	-2.89	-3.58	-1.22
O=C1NC(=O)C(=Cc2ccc(-c3ccc(F)cc3)o2)S1 (stereo in doubt)	-0.0673	-0.626	-0.172	-0.698
CCOC(=O)c1ccc(O)cc1 [Ethylparaben]	0.57	-1.45	-1.38	-0.183
O=C(c1cccc(Cl)c1F)N1CCN(Cc2cccc(Nc3nccs3)n2)CC1	0.873	0.0109	0.461	-0.218
CC(C)N(C[C@H]1O[C@@H](n2cnc3c(N)ncnc32)[C@H](O)[C@@H]1O)[C@H]1C[C@@H](CCc2nc3cc(C(C)(C)C)ccc3[nH]2)C1	1.05	1.05	1.66	2.37
Cn1nccc1Nc1nccc(-c2ccn([C@H](CO)c3ccc(Cl)c(F)c3)c(=O)c2)n1	-2.43	-1.26	1.35	-0.129
Cc1cc([N+](=O)[O-])ccc1NS(=O)(=O)c1cc(Cl)ccc1Cl	0.697	0.298	0.681	1.15
Cn1nnc(-c2ccc(-c3ccc(N4C[C@H](COP(=O)(O)O)OC4=O)cc3F)cn2)n1 [Tedizolid Phosphate]	0.228	0.804	0.164	-0.125
C[C@H](Oc1ccc(S(C)(=O)=O)cc1C(=O)N1CCN(c2ncc(C(F)(F)F)cc2F)CC1)C(F)(F)F [Bitopertin]	2.29	-2.12	-1.88	-0.278
Cc1cn([C@@H]2C[C@@H](O)[C@H](CO)O2)c(=O)[nH]c1=O [Telbivudine]	0.801	-0.419	-0.161	0.171
CC1(C)O[C@@H]2C[C@H]3[C@@H]4CCC5=CC(=O)C=C[C@]5(C)[C@@]4(F)[C@@H](O)C[C@]3(C)[C@]2(C(=O)CO)O1 [Triamcinolone Acetonide]	-0.538	0.178	-0.139	-0.0449
O=NN(CCCl)C(=O)NC1CCCCC1 [Lomustine]	-1.49	0.977	1.39	-0.898
C[C@H](NCc1ccc(OCc2cccc(F)c2)cc1)C(N)=O [Safinamide Mesylate]	0.253	-0.366	-0.185	0.104
Clc1ccc(COC(Cn2ccnc2)c2ccc(Cl)cc2Cl)c(Cl)c1 (stereo not drawn) [Miconazole]	-0.707	-0.459	-0.764	-0.74

Structure (SMILES)	nucleus area z-score [1]	total neurite length per nucleus (z-score) [2]	nucleus roundness z-score [3]	KCl-induced FOS+/EGR-1+ double-positive nuclei fraction z-score [4]
Cc1cc(N2C[C@@H](C)N[C@@H](C)C2)ncc1-c1ccc(-c2nc3c(ccn3C)c(=O)[nH]2)cc1	-3.59	-2.94	-2.16	-1.13
COC1(c2sc3c(N4CCOCC4)nc(-c4cnc(N)nc4)nc3c2C)COC1	-1.61	-0.291	-1.77	-1.85
CCC(=O)OCC(=O)[C@@]1(OC(=O)CC)[C@@H](C)C[C@H]2[C@@H]3CCC4=CC(=O)C=C[C@]4(C)[C@@]3(Cl)[C@@H](O)C[C@@]21C [Beclomethasone dipropionate]	0.754	-0.86	-1.26	0.298
COc1ccc(F)c(F)c1C(=O)c1cnc(NC2CCN(S(C)(=O)=O)CC2)nc1N	-4.99	-2.51	-0.948	-2
CC1(C)CCC2=C(O1)c1ccccc1C(=O)C2=O [Beta-Lapachone]	-10.8	-3.64	-7.3	-0.893
CC[C@]1(O)C[C@H]2CN(CCc3c([nH]c4ccccc34)[C@@](C(=O)OC)(c3cc4c(cc3OC)N(C=O)[C@H]3[C@@](O)(C(=O)OC)[C@H](OC(C)=O)[C@]5(CC)C=CCN6CC[C@]43[C@@H]65)C2)C1 [Vincristine]	-7.77	-2.54	0.0125	-0.729
CCN(CCO)CCCC(C)Nc1ccnc2cc(Cl)ccc12 (stereo not drawn) [Hydroxychloroquine Sulfate]	-0.503	-0.723	0.588	-0.13
NC(=O)OCC(COC(N)=O)c1ccccc1 [Felbamate]	0.0208	-0.242	-0.00571	1.49
O=C(N/N=C/c1cc(O)c(O)cc1O)c1cc2ccccc2cc1O [Dyngo-4a]	0.205	-0.49	0.453	-0.498
CCC(=O)NCC[C@@H]1CCc2ccc3c(c21)CCO3 [Ramelteon]	-0.5	0.0949	0.333	2.16
CN1CCN(c2cc3c(cc2F)c(=O)c(C(=O)O)cn3-c2ccc(F)cc2)CC1 [Difloxacin HCl]	0.507	0.0311	0.652	0.606
CCOc1cc(N2CCC(O)CC2)ccc1Nc1ncc2c(n1)N(C)c1ccccc1C(=O)N2C	-0.036	-1.83	-2.01	-0.66
COc1ccc2[nH]cc(CCNC(C)=O)c2c1 [Melatonin]	0.0196	0.19	-0.373	1.58
Oc1cc2c(cc1O)C(c1ccccc1)CNCC2 (stereo not drawn)	-0.256	0.386	1.17	1.16
CCC(=O)O[C@]1(C(=O)SCF)[C@H](C)C[C@H]2[C@@H]3C[C@H](F)C4=CC(=O)C=C[C@]4(C)[C@@]3(F)[C@@H](O)C[C@@]21C [Fluticasone propionate]	-0.274	2.38	1.54	0.804
OC[C@@H](O)[C@@H](O)[C@H](O)[C@@H](O)CO [Sorbitol]	0.582	-1.28	-1.41	1.86
CC(C)(CO)[C@@H](O)C(=O)NCCCO [D panthenol]	0.354	-0.219	0.193	0.783
COc1c(C)cnc(Cn2cnc3c(Cl)nc(N)nc32)c1C	-2	-1.74	-2.41	-1.72
CN1CCCCC1CCN1c2ccccc2Sc2ccc([S+](C)[O-])cc21 (stereo not drawn) [Mesoridazine Besylate]	0.234	-0.684	-1.46	-0.92
